Binding data for one substance are collected here from paper PMC8626462.

By UniProt entry, the sequences of proteins in these tests, tags left out.
UniProt P51532: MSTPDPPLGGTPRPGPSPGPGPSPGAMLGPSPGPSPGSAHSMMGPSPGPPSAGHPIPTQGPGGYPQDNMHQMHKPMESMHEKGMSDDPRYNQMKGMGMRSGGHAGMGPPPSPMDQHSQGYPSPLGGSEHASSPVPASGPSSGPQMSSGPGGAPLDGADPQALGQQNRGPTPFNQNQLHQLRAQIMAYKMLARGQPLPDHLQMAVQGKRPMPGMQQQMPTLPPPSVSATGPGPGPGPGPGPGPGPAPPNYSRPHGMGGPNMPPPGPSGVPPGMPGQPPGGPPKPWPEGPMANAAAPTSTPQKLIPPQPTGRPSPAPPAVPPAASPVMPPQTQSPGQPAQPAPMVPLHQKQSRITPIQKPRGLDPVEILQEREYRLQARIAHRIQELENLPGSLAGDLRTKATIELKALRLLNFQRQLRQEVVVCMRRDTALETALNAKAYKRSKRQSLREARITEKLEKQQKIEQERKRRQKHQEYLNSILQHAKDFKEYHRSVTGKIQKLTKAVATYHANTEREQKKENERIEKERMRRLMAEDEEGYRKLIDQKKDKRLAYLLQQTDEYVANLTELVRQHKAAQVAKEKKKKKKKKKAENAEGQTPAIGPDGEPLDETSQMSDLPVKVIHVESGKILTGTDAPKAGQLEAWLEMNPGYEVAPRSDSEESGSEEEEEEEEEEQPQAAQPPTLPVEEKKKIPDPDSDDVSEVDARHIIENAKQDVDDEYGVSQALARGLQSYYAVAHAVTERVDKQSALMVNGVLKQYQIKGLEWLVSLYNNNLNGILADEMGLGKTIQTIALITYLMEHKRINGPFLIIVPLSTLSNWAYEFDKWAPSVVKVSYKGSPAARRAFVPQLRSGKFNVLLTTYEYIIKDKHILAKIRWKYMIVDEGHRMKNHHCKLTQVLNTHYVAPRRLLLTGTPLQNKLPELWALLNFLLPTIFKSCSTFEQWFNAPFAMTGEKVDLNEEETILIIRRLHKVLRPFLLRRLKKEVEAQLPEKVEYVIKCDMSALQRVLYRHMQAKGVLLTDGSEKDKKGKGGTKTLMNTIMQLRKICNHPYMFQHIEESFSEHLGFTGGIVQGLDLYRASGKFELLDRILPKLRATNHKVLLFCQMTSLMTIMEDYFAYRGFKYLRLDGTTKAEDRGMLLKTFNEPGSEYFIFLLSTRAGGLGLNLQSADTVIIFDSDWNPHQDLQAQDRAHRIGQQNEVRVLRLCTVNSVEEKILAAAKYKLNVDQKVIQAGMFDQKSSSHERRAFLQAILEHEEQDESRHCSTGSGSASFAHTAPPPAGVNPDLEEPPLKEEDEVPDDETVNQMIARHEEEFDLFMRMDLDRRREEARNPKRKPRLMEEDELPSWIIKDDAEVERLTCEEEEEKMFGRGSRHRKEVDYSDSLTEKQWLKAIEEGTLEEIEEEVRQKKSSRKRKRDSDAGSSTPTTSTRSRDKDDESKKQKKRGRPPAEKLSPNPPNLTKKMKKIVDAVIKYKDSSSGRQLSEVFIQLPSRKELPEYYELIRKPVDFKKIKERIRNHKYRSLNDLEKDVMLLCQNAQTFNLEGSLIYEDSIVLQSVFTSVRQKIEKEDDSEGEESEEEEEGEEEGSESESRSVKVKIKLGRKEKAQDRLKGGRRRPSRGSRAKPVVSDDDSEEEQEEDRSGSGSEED
UniProt Q12824: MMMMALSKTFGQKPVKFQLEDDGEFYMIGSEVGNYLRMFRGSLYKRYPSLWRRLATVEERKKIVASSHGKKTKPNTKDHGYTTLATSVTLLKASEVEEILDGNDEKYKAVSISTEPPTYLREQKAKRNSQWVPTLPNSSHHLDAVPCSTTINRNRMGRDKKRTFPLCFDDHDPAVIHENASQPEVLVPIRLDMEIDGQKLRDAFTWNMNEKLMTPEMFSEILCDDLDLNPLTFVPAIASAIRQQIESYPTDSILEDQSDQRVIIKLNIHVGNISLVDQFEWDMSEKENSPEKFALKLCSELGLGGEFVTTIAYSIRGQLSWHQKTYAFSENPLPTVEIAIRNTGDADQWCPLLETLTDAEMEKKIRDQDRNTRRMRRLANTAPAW

No constants are given. Whether binding was seen depends on the method and setting. Some entries that bind do so weakly or less than the wild type.

The target in the experiment is BRG1 (encoded by SMARCA4) (human (endogenous in HEK293T, RH4, RH30)) (UniProt P51532). In words: SEC; 100 µg nuclear extract of RH4 or RH30 cells on BioSep SEC 300 (7.8 x 300 mm), 150 mM NaPO4 pH 7.2, 350 ul/minute; fractions western blotted for BRG1, BAF47 or PBRM1; fractions 15/16 are >1 megadalton.

Consider “BAF47 (encoded by SMARCB1) (from UniProt Q12824 1-385)”, for which the binding entry is “binds”.
